PubChem BioAssay AID652272, Drosophila RNAi Screening Center | 2013

Assay: 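Genes whose knock-down decreases or increases Hedgehog reporter output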 (primary screen)
System: Drosophila clone 8 (Cl8) cells
Knock-down reagent: long dsRNA against Drosophila genes
Detection: 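Plate reader light from a firefly reporter under a ptc promoter fragment that responds to Hedgehog, with Renilla light as transfection reference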
Reading the numbers: firefly Hh reporter signal: higher = more ptc reporter light; Renilla reference signal: higher = more Renilla control light
Rule for the call: 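Called a hit if the two-replicate mean z-score lies below -2 or above +3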
Meaning of the calls: active = hit: reporter lowered or raised; inactive = not a hit
The deposit covers about 21,000 reagents; this is a random part of those with a known target gene and a result. Of all reagents, 503 (2.4%) are marked active. 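Raw plate light values, not normalised; calls rest on replicate z-scores that were not deposited; hits include reporter decreases as well as increases.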 The numbers tell different reagents against one gene apart. Not stated in the record: the amount of reagent, the time to read-out.

After knock-down of Fer2 (48 related 2), the record shows firefly Hh reporter signal, replicate 1 = 1.02e5; firefly Hh reporter signal, replicate 2 = 1.12e5; Renilla reference signal, replicate 1 = 1705; Renilla reference signal, replicate 2 = 3683; inactive.
After knock-down of BBS4 (Bardet-Biedl syndrome 4), the record shows firefly Hh reporter signal, replicate 1 = 8.66e5; firefly Hh reporter signal, replicate 2 = 1.79e5; Renilla reference signal, replicate 1 = 8166; Renilla reference signal, replicate 2 = 8166; inactive.
mael (maelstrom) showed firefly Hh reporter signal, replicate 1 = 1.33e5; firefly Hh reporter signal, replicate 2 = 1.07e5; Renilla reference signal, replicate 1 = 5447; Renilla reference signal, replicate 2 = 4278; inactive.
Depletion of CG10226 gave: firefly Hh reporter signal, replicate 1 = 67153; firefly Hh reporter signal, replicate 2 = 61466; Renilla reference signal, replicate 1 = 3129; Renilla reference signal, replicate 2 = 2521; inactive.
Silencing of Irbp (Inverted repeat-binding protein) came out at: firefly Hh reporter signal, replicate 1 = 73318; firefly Hh reporter signal, replicate 2 = 80041; Renilla reference signal, replicate 1 = 2704; Renilla reference signal, replicate 2 = 2132; inactive.
For CG13575, the entry reads firefly Hh reporter signal, replicate 1 = 1.06e5; firefly Hh reporter signal, replicate 2 = 86453; Renilla reference signal, replicate 1 = 2666; Renilla reference signal, replicate 2 = 7660; inactive.
CG31404 scored firefly Hh reporter signal, replicate 1 = 6.46e5; firefly Hh reporter signal, replicate 2 = 96513; Renilla reference signal, replicate 1 = 35303; Renilla reference signal, replicate 2 = 2496; inactive.
For CG2772, the entry reads firefly Hh reporter signal, replicate 1 = 85672; firefly Hh reporter signal, replicate 2 = 58858; Renilla reference signal, replicate 1 = 1907; Renilla reference signal, replicate 2 = 4557; inactive.
After knock-down of Odc2 (Ornithine decarboxylase 2) the results were firefly Hh reporter signal, replicate 1 = 70260; firefly Hh reporter signal, replicate 2 = 49824; Renilla reference signal, replicate 1 = 1819; Renilla reference signal, replicate 2 = 4618; inactive.

Just “firefly Hh reporter signal, replicate 2”, for 3 of the entries above:
Irbp (Inverted repeat-binding protein)	80041
CG13575	86453
CG31404	96513

The results go on.
Depletion of Acp62F (Accessory gland protein 62F) came out at: firefly Hh reporter signal, replicate 1 = 55719; firefly Hh reporter signal, replicate 2 = 29577; Renilla reference signal, replicate 1 = 1755; Renilla reference signal, replicate 2 = 2240; inactive.
CG34278 showed firefly Hh reporter signal, replicate 1 = 53872; firefly Hh reporter signal, replicate 2 = 2.39e5; Renilla reference signal, replicate 1 = 11062; Renilla reference signal, replicate 2 = 6067; inactive.
Depletion of l(1)10Bb (lethal (1) 10Bb) resulted in: firefly Hh reporter signal, replicate 1 = 52900; firefly Hh reporter signal, replicate 2 = 1.65e5; Renilla reference signal, replicate 1 = 2001; Renilla reference signal, replicate 2 = 8000; inactive.
For CG15369, the entry reads firefly Hh reporter signal, replicate 1 = 72234; firefly Hh reporter signal, replicate 2 = 1.20e5; Renilla reference signal, replicate 1 = 2258; Renilla reference signal, replicate 2 = 4860; inactive.
CG10694 showed firefly Hh reporter signal, replicate 1 = 5.18e5; firefly Hh reporter signal, replicate 2 = 76086; Renilla reference signal, replicate 1 = 26784; Renilla reference signal, replicate 2 = 2612; inactive.
beta'COP (Coat Protein (coatomer) beta') showed firefly Hh reporter signal, replicate 1 = 21393; firefly Hh reporter signal, replicate 2 = 35676; Renilla reference signal, replicate 1 = 1612; Renilla reference signal, replicate 2 = 2411; active.
dpp (decapentaplegic) #1 gave firefly Hh reporter signal, replicate 1 = 3.07e5; firefly Hh reporter signal, replicate 2 = 73465; Renilla reference signal, replicate 1 = 21307; Renilla reference signal, replicate 2 = 6147; active.
After knock-down of dpp (decapentaplegic) #2, the screen gave firefly Hh reporter signal, replicate 1 = 6.84e5; firefly Hh reporter signal, replicate 2 = 2.13e5; Renilla reference signal, replicate 1 = 35283; Renilla reference signal, replicate 2 = 9578; inactive.
dpp (decapentaplegic) #3 scored firefly Hh reporter signal, replicate 1 = 90617; firefly Hh reporter signal, replicate 2 = 80738; Renilla reference signal, replicate 1 = 2162; Renilla reference signal, replicate 2 = 2080; inactive.
Silencing of CG17648 came out at: firefly Hh reporter signal, replicate 1 = 1.35e5; firefly Hh reporter signal, replicate 2 = 72320; Renilla reference signal, replicate 1 = 2914; Renilla reference signal, replicate 2 = 1895; inactive.
CheA84a (Chemosensory protein A 84a) showed firefly Hh reporter signal, replicate 1 = 1.78e5; Renilla reference signal, replicate 1 = 3890; inactive.
Against RhoGEF4 (Rho guanine nucleotide exchange factor 4), the entry reads firefly Hh reporter signal, replicate 1 = 83605; firefly Hh reporter signal, replicate 2 = 69500; Renilla reference signal, replicate 1 = 3995; Renilla reference signal, replicate 2 = 2976; inactive.
